{"source": "patent US4347382A", "about": "“3^H Labeled compounds” (Burroughs Wellcome Co., priority 1980, dated 1982)", "data": [{"test_system": "anti-compound 2 sera, anti-compound 3 sera", "assay": "RIA of bupropion using 125I-labeled bupropion competitors with anti-compound 2 or anti-compound 3 sera", "assay_type": "binding", "details": "with either anti-compound 2 or anti-compound 3 sera; ethanol precipitation", "values": [{"smiles": "CC(NC(C)(C)C)C(=O)c1ccc(OCC(=O)NCCc2ccc(O)c([125I])c2)c(Cl)c1", "note": "(stereo not drawn) [Compound 7, α-t-Butylamino-3-chloro-4-carbomethoxypropiophenone-^125 I-tyramine amide]", "sensitivity of RIA relative to the compound 10 (3H bupropion) assay system": "approximately equal"}, {"smiles": "CC(NC(C)(C)C)C(=O)c1ccc(CCCOC(=O)CCC(=O)NCCc2ccc(O)c([125I])c2)c(Cl)c1", "note": "(stereo not drawn) [Compound 8, α-t-Butylamino-3-chloro-4-γ-hydroxypropylpropiophenone-hemisuccinate-^125 I-tyramine amide]", "sensitivity of RIA relative to the compound 10 (3H bupropion) assay system": "approximately equal"}, {"smiles": "CC(NC(C)(C)C)C(=O)c1ccc(O)c([125I])c1", "note": "(stereo not drawn) [Compound 9, ^125 I-α-t-Butylamino-3-iodo-4-hydroxypropiophenone]", "sensitivity of RIA relative to the compound 10 (3H bupropion) assay system": "approximately ten times more sensitive"}]}]}
